# Test results published in PubChem BioAssay AID504467 (National Center for Advancing Translational Sciences (NCATS), 2011).
# Among all 330,000 compounds or so, about 7,700 (2.3%) were called active. This list was built around the results that the source calls inconclusive (neither active nor inactive); the mix of calls is not that of the screen. Calls come from the whole dose curve; as a rule, active = well fitted inhibition curve with a large enough effect; inconclusive = small, poorly fitted or top-dose-only effect, or effect the other way; inactive = flat fitted curve, though single readings scatter. Potencies of inconclusive entries are doubtful fits and often do not repeat.
# Assay: qHTS screen for small molecules that inhibit ELG1-dependent DNA repair in human embryonic kidney (HEK293T) cells expressing luciferase-tagged ELG1; note: nearly all actives have a fitted effect of over 55% in size
# Conditions: HEK293T ELG1-luciferase reporter, luminescence, 16 h, DNA damage induced by 5-fluorouridine; series mostly up to 46.1 µM
# Method in brief: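 5-Fluorouridine DNA damage + compound/DMSO, 2,000 cells/well, 16 h, 37 °C/5% CO2. ONE-Glo, 30 min RT, luminescence. Readout = decrease in reporter signal.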
# Potency is the fitted concentration of half-maximal effect.
row,SMILES,Potency
1,O=[N+]([O-])c1ccc(S(=O)(=O)Nc2cccc(-c3ccc(N4CCCC4)nn3)c2)cc1,"inconclusive: 0.73 µM [activator, partial curve, poor fit]"
2,COc1cc(/C=N/N=C2/NC(=O)C(c3ccccc3)S2)ccc1O (stereo not given),inactive
3,CC(=O)c1cccc(NC(=O)Cc2cccs2)c1,inactive
4,Cc1csc(NC(=O)CCC(=O)c2cccs2)n1,"inconclusive: 20.6 µM [activator, partial curve]"
5,COc1nc(OCCNC(=O)Nc2ccccc2)nc(N(C)C)n1,"inconclusive: 2.31 µM [inhibitor, single point]"
6,O=C(/C=C/Nc1ccc(Cc2ccc(N/C=C/C(=O)C(F)(F)F)cc2)cc1)C(F)(F)F,"inconclusive: 29.1 µM [activator, partial curve, poor fit]"
7,CC1=NN(C(=O)CSCc2ccccc2)C(O)(c2ccc(F)cc2)C1 (stereo not given),inactive
8,O=C(Nc1nnc(-c2ccncc2)o1)c1ccc2ccccc2c1,inactive
9,CC1(C(=O)NCCN2CCOCC2)C=CCN1C(=O)c1ccccc1 (stereo not given),"inconclusive: 18.4 µM [activator, partial curve]"
10,O=C1NCCCN1Cc1ccc(Cl)cc1,inactive
11,CCOc1ccc(/C=C2/SC(=S)N(CCC(=O)Nc3ccc(C(=O)O)cc3)C2=O)cc1,inactive
12,COc1ccccc1NC(=O)c1c[nH]c2ccccc12,"inconclusive: 20.6 µM [activator, partial curve]"
13,O=C(COc1ccccc1)Nc1cc(NC(=O)COc2ccccc2)cc(C(=O)O)c1,inactive
14,COc1ccc(NC(=O)CSc2[nH]c(=O)cc(C)c2C#N)cc1OC,inactive
15,Cc1ccc(SCCN2CCN(Cc3ccccc3)CC2)cc1,"inconclusive: 20.6 µM [inhibitor, single point]"
16,CN(C(=O)CSc1nnc(-c2ccccc2F)o1)c1ccccc1,"inconclusive: 14.6 µM [activator, partial curve]"
17,Cc1ccc(C(=O)OCC(=O)c2ccc[nH]2)s1,"inconclusive: 23.1 µM [activator, single point]"
18,COc1ccc(CCNC(=O)CCCOc2cc(=O)n(C)c3ccccc23)cc1OC,"inconclusive: 29.1 µM [activator, single point]"
19,Cc1c(Cl)ccc2c(C(=O)O)cc(-c3ccccc3)nc12,"inconclusive: 0.164 µM [inhibitor, full curve, poor fit]"
20,O=C(Nc1cccnc1)c1cc(-c2cccnc2)nc2ccc(Br)cc12,"inconclusive: 35.5 µM [inhibitor, partial curve, poor fit]"
21,COc1cccc(C(=O)Nc2nnc(SCC(=O)NC3CC3)s2)c1,"inconclusive: 18.3 µM [activator, partial curve]"
22,COC(=O)c1c(C)[nH]c(C(=O)/C=C/c2ccccc2F)c1C,"inconclusive: 2.59 µM [activator, full curve]"
23,CC(=O)NS(=O)(=O)c1ccc(NC(=O)C(C)NS(=O)(=O)/C=C/c2ccccc2)cc1 (stereo not given),"inconclusive: 18.3 µM [activator, single point]"
24,CN(C(=O)c1cc(S(=O)(=O)N2CCCCC2)c[nH]1)C1CCCCC1,inactive

# At a glance, part of the list above.
row,SMILES,Potency
7,CC1=NN(C(=O)CSCc2ccccc2)C(O)(c2ccc(F)cc2)C1 (stereo not given),inactive
8,O=C(Nc1nnc(-c2ccncc2)o1)c1ccc2ccccc2c1,inactive
9,CC1(C(=O)NCCN2CCOCC2)C=CCN1C(=O)c1ccccc1 (stereo not given),"inconclusive: 18.4 µM [activator, partial curve]"
10,O=C1NCCCN1Cc1ccc(Cl)cc1,inactive
11,CCOc1ccc(/C=C2/SC(=S)N(CCC(=O)Nc3ccc(C(=O)O)cc3)C2=O)cc1,inactive
12,COc1ccccc1NC(=O)c1c[nH]c2ccccc12,"inconclusive: 20.6 µM [activator, partial curve]"
13,O=C(COc1ccccc1)Nc1cc(NC(=O)COc2ccccc2)cc(C(=O)O)c1,inactive
14,COc1ccc(NC(=O)CSc2[nH]c(=O)cc(C)c2C#N)cc1OC,inactive
15,Cc1ccc(SCCN2CCN(Cc3ccccc3)CC2)cc1,"inconclusive: 20.6 µM [inhibitor, single point]"
16,CN(C(=O)CSc1nnc(-c2ccccc2F)o1)c1ccccc1,"inconclusive: 14.6 µM [activator, partial curve]"
17,Cc1ccc(C(=O)OCC(=O)c2ccc[nH]2)s1,"inconclusive: 23.1 µM [activator, single point]"
18,COc1ccc(CCNC(=O)CCCOc2cc(=O)n(C)c3ccccc23)cc1OC,"inconclusive: 29.1 µM [activator, single point]"
19,Cc1c(Cl)ccc2c(C(=O)O)cc(-c3ccccc3)nc12,"inconclusive: 0.164 µM [inhibitor, full curve, poor fit]"
20,O=C(Nc1cccnc1)c1cc(-c2cccnc2)nc2ccc(Br)cc12,"inconclusive: 35.5 µM [inhibitor, partial curve, poor fit]"
21,COc1cccc(C(=O)Nc2nnc(SCC(=O)NC3CC3)s2)c1,"inconclusive: 18.3 µM [activator, partial curve]"

# Continued.

row,SMILES,Potency
1,O=C(CCN1CCOCC1)c1ccc(Br)cc1,inactive
2,O=C(NN=Cc1ccc(F)cc1)c1cccc(S(=O)(=O)N2CCCC2)c1,"inconclusive: 29.1 µM [inhibitor, single point]"
3,Cc1ccc(C2=N/C(=C\N3CCCCC3)C(=O)O2)cc1,"inconclusive: 5.8 µM [activator, partial curve]"
4,CC(=O)Nc1nc(C2CC2)cc(-c2ccccc2)c1C#N,inactive
5,Cc1ccc2nc(SCC(=O)NC3CCCC3)nc(=O)n2c1,inactive
6,O=S(=O)(c1ccc(SCCO)nc1)N1CCOCC1,"inconclusive: 3.16 µM [activator, single point]"
7,CCC(c1nnnn1C(C)(C)C)N(Cc1ccco1)Cc1cc2cccc(C)c2[nH]c1=O (stereo not given),"inconclusive: 23.1 µM [inhibitor, single point]"
8,NC(=O)c1ccccc1OCc1nc2ccccc2s1,"inconclusive: 9.2 µM [activator, partial curve]"
9,Cc1ccc(S(=O)(=O)N2CCN(C(=O)CSc3ncc(C(F)(F)F)cc3Cl)CC2)cc1,"inconclusive: 29.1 µM [inhibitor, single point]"
10,CN(CC(=O)Nc1sc2c(c1C#N)CCCCC2)Cc1nc2ccccc2c(=O)[nH]1,active: 23.1 µM
11,CC1CCCN(c2ccc(/C=C(\C#N)c3nn(-c4ccccc4)c(N)c3C#N)cc2[N+](=O)[O-])C1 (stereo not given),inactive
12,CCOc1cc2[nH]c(=O)n(CCCCC(=O)N3CCCCCC3)c(=O)c2cc1OCC,"inconclusive: 20.6 µM [inhibitor, partial curve]"
13,CCc1ccc(C(=O)Nc2ccc(OC)c(S(=O)(=O)N3CCCCC3)c2)cc1,"inconclusive: 3.66 µM [inhibitor, partial curve, poor fit]"
14,O=C(NCc1ccco1)c1cc2c(s1)CCCCC2,"inconclusive: 14.6 µM [activator, partial curve]"
15,COc1cc(C(=S)N2CCOCC2)cc(OC)c1OS(=O)(=O)c1ccc(C)cc1,"inconclusive: 23.1 µM [activator, single point]"
16,CC(=O)c1ccc(S(=O)(=O)NCCC(=O)OC(C)C(=O)Nc2ccc(F)cc2)cc1 (stereo not given),"inconclusive: 3.66 µM [activator, partial curve, poor fit]"
17,Cc1nc2ccc(NC(=O)c3cncc(Br)c3)cc2s1,active: 23.1 µM
18,COc1cccc(-n2c(=O)n(Cc3ccccc3)c(=O)c3[nH]cnc32)c1C,"inconclusive: 32.6 µM [activator, partial curve, poor fit]"
19,Cc1ccc(NC(=O)C2C(=O)N(CCO)C3(C)CC2c2ccccc2O3)cc1 (stereo not given),"inconclusive: 18.4 µM [activator, partial curve]"
20,O=Cc1ccc(OC(=O)/C=C/c2ccccc2)cc1,inactive
21,CN(C)c1ccc(C(=O)/C=C/c2ccccc2)cc1,"inconclusive: 18.3 µM [activator, partial curve]"
22,COc1ccc(N2CCN(C(=O)c3ccc(-n4nc(C)cc4C)cc3)CC2)cc1,inactive
23,Cc1nn(S(=O)(=O)c2ccc(Br)cc2)c(C)c1S(=O)(=O)N1CCOCC1,"inconclusive: 29.1 µM [activator, single point]"
24,O=C(COc1ccc2ccc(=O)oc2c1)c1ccccc1,"inconclusive: 18.3 µM [activator, single point]"

row,SMILES,Potency
1,CCOC(=O)c1c(-c2ccc(F)cc2)csc1NC(=O)c1c(-c2ccccc2)noc1C,"inconclusive: 20.6 µM [activator, single point]"
2,O=C(NCCc1ccc(F)cc1)c1cccc(NC(=O)c2ccccc2)c1,"inconclusive: 18.3 µM [inhibitor, single point]"
3,O=C(O)c1cccnc1SCc1cccc(Br)c1,"inconclusive: 18.3 µM [activator, partial curve, poor fit]"
4,COCCn1c(C)cc(C(=O)CSc2nnnn2C2CCCC2)c1C,"inconclusive: 0.116 µM [activator, full curve]"
5,CC1CCCCC1NC(=O)c1cc2c(=O)n3ccccc3nc2n1C (stereo not given),"inconclusive: 23.1 µM [inhibitor, single point]"
6,CC1Cc2cc(S(=O)(=O)N3CCC(C(=O)Nc4ccccn4)CC3)ccc2N1C(=O)C1CCC1 (stereo not given),"inconclusive: 29.1 µM [inhibitor, single point]"
7,COc1ccccc1N1CCN(c2ncnc3c2oc2ccccc23)CC1,"inconclusive: 4.61 µM [inhibitor, single point]"
8,c1ccc(CN2CCN(Cc3c[nH]c4ccccc34)CC2)cc1,inactive
9,Cc1cc2nc3c(c(C(F)(F)F)n2n1)CCCC3,"inconclusive: 18.3 µM [activator, partial curve, poor fit]"
10,CC1CN(S(=O)(=O)c2cc(C(=O)N(CCc3ccccc3)Cc3ccccc3)ccc2Cl)CC(C)O1 (stereo not given),active: 23.1 µM
11,O=C(NCCc1ccc2c(c1)OCCO2)c1ccccc1F,"inconclusive: 14.6 µM [activator, partial curve]"
12,FC(F)(F)c1ccccc1NC(=S)N1CCN(c2ccccn2)CC1,"inconclusive: 29.1 µM [inhibitor, single point]"
13,COc1ccc(N2CCN(C(=O)c3ccc(N(C)S(=O)(=O)c4ccc(OC)cc4)cc3)CC2)cc1,"inconclusive: 32.6 µM [inhibitor, single point]"
14,O=C1CCN(S(=O)(=O)c2ccccc2)CCN1CCOCc1ccc(F)cc1,inactive
15,C#CCn1c(=NC(=O)c2ccc(S(=O)(=O)N3CCc4ccccc4C3)cc2)sc2cc(S(N)(=O)=O)ccc21,"inconclusive: 16.4 µM [inhibitor, single point]"
16,CCCCOCC(O)Cn1c(C)nc2ccccc21 (stereo not given),"inconclusive: 9.2 µM [inhibitor, partial curve]"
17,C[C@@H]1CN([C@H](C)CO)C(=O)c2cccc(NS(=O)(=O)c3cccs3)c2O[C@H]1CN(C)Cc1ccccc1,inactive
18,COc1ccc(NC2CCCCC2NS(=O)(=O)c2ccc(C)cc2)cc1 (stereo not given),inactive
19,COCCNC(=S)N1CCc2cc(OC)c(OC)cc2C1COc1ccc(F)cc1 (stereo not given),active: 16.4 µM
20,Cc1nc(NCc2ccco2)[nH]c(=O)c1CCC(C)C,inactive
21,COc1cc(/C=C2/SC(=S)N(CCC(=O)Nc3ccccc3)C2=O)cc(OC)c1OC,"inconclusive: 2.59 µM [inhibitor, partial curve, poor fit]"
22,CCC(CO)Nc1ncnc2c1cnn2-c1ccc(Cl)cc1 (stereo not given),"inconclusive: 0.461 µM [activator, full curve]"
